# Where a name gives a salt, the structure may show the parent alone. This is one part of the list. Hit calls seldom repeat between salt and free forms of one compound.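 Kinases, fused to nanoluciferase, were expressed in K562 cells; luminescence was measured every 4 h from 2 to 18 h as percent of control (DMSO = 100%, positive control = 0%). A time point is decreased if signal falls significantly (2 sigma). Hits were called by the authors by a rule that is not shown; the count of time points alone does not decide it.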
# Amino acid sequences for entries named in this document (tags omitted). A change or cut given only in a name is not applied to a line headed by its entry.
# UniProt P11362, whole entry, looked up: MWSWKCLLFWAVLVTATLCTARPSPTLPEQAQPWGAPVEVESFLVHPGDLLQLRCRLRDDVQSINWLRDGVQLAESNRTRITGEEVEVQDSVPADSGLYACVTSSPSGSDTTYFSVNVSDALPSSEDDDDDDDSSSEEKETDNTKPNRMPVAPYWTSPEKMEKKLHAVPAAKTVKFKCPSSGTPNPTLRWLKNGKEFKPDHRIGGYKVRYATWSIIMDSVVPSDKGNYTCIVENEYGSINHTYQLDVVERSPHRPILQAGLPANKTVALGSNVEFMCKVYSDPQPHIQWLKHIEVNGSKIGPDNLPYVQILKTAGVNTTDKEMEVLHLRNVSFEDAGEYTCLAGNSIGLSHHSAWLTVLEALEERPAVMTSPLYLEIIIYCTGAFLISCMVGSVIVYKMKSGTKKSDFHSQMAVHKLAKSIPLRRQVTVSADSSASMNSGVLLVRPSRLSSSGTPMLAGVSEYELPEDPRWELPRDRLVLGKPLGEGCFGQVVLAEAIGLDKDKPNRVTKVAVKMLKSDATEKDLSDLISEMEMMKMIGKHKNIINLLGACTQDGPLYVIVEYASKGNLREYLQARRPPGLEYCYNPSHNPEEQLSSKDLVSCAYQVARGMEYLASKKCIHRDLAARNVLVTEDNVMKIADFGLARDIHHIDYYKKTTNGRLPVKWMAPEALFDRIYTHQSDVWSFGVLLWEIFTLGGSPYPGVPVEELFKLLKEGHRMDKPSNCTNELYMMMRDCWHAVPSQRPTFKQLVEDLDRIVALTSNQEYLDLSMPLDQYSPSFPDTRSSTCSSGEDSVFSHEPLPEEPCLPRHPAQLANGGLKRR
# UniProt P22607, whole entry, looked up: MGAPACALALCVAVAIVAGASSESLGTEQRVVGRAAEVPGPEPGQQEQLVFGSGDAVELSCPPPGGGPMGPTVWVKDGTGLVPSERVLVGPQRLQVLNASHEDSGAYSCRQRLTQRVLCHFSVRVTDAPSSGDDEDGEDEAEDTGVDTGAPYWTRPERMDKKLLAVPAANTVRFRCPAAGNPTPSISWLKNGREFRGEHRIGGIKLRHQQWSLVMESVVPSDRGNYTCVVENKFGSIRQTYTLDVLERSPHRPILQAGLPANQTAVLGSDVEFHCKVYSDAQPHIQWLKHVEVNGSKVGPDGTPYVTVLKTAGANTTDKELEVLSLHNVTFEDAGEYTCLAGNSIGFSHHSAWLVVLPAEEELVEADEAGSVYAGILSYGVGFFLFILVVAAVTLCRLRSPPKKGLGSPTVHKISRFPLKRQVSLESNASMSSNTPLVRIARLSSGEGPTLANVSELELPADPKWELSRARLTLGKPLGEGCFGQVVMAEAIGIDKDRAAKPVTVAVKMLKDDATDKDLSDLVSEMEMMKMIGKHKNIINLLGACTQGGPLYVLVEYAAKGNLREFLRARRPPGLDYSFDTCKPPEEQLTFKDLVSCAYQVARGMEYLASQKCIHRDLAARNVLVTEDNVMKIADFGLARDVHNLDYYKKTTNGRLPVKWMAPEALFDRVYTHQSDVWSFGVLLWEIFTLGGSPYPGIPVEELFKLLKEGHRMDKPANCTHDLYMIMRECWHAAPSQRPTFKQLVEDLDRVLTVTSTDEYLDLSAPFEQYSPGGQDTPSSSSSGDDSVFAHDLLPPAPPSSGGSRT
# UniProt P36888, whole entry: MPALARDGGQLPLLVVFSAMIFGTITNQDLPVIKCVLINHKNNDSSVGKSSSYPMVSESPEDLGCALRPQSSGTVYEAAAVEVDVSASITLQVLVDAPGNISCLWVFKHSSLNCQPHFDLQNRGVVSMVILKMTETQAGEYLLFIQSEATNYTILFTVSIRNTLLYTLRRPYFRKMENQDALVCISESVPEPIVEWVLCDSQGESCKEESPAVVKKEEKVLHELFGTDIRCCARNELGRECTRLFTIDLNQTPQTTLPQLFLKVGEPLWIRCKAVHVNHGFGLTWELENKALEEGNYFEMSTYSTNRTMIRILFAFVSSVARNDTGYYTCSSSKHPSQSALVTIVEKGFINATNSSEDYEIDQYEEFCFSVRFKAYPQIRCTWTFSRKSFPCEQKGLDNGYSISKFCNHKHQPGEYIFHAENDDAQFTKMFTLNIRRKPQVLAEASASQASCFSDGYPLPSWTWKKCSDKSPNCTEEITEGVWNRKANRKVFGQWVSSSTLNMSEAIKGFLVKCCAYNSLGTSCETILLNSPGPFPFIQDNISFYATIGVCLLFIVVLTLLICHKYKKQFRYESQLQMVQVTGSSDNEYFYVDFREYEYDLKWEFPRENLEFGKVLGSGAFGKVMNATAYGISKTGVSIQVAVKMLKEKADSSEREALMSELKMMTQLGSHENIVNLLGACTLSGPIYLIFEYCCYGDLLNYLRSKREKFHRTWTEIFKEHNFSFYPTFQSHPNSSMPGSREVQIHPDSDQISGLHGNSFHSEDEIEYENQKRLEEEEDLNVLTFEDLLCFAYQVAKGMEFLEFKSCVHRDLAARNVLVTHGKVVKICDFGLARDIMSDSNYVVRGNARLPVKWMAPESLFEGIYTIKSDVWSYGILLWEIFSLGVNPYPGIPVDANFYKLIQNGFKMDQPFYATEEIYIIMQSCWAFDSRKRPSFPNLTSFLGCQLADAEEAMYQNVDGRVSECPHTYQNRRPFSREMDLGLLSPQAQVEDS
# UniProt P49840: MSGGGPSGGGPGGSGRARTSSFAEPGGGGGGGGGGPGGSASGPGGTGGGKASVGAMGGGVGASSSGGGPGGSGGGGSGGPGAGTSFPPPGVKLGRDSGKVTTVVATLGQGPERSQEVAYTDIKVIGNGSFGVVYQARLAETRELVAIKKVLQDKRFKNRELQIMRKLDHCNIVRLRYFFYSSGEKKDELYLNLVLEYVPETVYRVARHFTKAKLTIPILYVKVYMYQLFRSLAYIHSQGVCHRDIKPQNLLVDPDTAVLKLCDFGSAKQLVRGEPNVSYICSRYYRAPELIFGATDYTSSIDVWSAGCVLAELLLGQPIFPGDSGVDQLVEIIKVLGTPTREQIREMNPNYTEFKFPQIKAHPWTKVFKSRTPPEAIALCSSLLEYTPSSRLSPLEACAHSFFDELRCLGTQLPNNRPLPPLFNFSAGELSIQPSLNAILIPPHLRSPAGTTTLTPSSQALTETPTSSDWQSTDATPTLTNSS
# UniProt P14616: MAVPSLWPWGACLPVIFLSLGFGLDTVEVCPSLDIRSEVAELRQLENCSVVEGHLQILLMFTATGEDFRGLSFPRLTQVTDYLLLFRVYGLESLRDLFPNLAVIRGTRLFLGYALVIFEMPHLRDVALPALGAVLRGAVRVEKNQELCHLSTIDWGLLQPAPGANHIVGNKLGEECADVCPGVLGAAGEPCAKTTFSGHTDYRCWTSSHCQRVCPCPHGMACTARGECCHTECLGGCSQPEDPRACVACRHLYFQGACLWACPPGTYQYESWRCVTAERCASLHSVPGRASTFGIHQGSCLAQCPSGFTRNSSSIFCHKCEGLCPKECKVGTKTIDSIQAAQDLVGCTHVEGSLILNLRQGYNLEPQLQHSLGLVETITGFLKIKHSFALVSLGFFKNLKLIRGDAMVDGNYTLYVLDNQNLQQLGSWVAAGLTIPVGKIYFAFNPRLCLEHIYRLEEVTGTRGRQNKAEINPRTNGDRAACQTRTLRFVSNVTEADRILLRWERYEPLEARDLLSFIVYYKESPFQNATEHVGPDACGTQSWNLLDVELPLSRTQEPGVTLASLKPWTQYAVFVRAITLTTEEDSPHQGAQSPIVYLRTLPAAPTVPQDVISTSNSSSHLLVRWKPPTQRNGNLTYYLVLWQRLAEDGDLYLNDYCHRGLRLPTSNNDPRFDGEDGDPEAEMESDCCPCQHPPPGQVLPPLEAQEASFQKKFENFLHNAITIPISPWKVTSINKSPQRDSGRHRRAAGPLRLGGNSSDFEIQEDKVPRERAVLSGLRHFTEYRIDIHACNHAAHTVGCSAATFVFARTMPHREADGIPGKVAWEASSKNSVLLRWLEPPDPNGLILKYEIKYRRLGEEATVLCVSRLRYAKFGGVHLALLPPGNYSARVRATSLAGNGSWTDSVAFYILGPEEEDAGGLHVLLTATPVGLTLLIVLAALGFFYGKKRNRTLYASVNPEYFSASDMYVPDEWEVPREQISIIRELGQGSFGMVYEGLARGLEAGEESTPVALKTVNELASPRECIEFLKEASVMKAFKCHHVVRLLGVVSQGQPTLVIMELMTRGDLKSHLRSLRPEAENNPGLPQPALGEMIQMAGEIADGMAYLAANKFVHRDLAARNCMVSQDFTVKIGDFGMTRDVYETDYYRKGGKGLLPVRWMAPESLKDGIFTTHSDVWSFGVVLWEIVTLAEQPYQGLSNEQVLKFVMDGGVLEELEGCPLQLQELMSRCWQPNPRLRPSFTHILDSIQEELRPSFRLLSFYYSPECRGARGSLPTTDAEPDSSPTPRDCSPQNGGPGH
# UniProt Q9Y616: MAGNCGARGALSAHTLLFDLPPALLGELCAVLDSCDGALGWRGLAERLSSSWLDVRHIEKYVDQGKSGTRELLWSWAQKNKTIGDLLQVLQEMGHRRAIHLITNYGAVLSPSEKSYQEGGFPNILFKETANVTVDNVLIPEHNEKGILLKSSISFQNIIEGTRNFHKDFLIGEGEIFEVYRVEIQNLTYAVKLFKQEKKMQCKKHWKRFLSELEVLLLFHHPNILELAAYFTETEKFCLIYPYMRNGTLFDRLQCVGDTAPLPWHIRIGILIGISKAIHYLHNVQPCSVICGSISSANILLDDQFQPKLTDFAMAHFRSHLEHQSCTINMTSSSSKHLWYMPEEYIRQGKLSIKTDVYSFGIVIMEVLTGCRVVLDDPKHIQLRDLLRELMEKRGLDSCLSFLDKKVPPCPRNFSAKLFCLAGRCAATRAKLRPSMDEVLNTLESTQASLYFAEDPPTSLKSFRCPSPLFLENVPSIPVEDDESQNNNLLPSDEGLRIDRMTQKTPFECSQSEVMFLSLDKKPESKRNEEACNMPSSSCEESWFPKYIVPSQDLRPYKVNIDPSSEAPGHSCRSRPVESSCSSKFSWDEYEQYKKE
# UniProt P53671: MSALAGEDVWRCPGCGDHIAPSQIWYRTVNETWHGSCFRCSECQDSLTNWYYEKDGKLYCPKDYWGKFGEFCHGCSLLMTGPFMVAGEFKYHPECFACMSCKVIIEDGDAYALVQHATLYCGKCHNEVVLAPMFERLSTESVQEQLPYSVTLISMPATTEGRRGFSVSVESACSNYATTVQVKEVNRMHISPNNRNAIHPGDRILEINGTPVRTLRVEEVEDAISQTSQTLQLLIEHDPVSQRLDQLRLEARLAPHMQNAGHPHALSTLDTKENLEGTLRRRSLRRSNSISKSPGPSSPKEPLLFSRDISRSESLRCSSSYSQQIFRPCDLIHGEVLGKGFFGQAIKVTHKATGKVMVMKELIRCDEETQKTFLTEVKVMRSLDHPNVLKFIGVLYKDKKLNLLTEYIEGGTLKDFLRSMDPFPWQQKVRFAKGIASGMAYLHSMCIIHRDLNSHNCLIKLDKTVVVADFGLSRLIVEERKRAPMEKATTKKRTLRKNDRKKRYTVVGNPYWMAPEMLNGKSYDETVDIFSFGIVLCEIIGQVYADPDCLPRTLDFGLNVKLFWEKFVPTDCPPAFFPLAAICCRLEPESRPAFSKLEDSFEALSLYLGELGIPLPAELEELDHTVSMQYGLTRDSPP
# UniProt Q12851: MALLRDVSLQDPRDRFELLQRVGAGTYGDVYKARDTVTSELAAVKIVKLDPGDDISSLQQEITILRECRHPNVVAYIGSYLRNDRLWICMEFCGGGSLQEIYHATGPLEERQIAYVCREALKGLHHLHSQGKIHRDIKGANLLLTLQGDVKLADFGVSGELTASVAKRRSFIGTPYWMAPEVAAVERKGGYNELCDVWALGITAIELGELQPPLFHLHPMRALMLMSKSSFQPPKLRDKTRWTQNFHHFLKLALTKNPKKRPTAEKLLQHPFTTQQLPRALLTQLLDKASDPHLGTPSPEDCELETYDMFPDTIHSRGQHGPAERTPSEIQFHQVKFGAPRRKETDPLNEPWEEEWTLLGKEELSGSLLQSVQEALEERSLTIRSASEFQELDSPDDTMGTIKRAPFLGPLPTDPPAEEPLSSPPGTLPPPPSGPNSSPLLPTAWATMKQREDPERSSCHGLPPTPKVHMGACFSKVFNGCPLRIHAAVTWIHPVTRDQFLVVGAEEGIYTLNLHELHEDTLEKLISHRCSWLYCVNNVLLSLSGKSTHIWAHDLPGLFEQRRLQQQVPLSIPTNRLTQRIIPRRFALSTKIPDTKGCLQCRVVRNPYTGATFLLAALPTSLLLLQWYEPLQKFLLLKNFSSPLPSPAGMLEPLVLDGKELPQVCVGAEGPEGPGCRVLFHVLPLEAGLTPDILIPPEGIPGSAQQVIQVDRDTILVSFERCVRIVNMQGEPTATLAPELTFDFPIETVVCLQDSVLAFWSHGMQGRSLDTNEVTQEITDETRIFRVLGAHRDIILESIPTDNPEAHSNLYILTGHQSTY
# What was measured:
# Test in all cases: kinase-Nluc reporter destabilization hit call (1 = scored as downregulated) (binary); higher = compound decreases kinase abundance
# Conditions in all cases: K562, 2-18 h
# ERN1 = ERN1 (UniProt O75460)
# FGFR1 = FGFR1 (UniProt P11362)
# FGFR2 = FGFR2 (UniProt P21802)
# FGFR3 = FGFR3 (UniProt P22607)
# FGR = FGR (UniProt P09769)
# FLT3 = FLT3 (UniProt P36888)
# FYN = FYN (UniProt P06241)
# GSK3A = GSK3A (UniProt P49840)
# HER2 = HER2 (UniProt P04626)
# INSRR = INSRR (UniProt P14616)
# IRAK3 = IRAK3 (UniProt Q9Y616)
# JAK1 = JAK1 (UniProt P23458)
# LCK = LCK (UniProt P06239)
# LIMK1 = LIMK1 (UniProt P53667)
# LIMK2 = LIMK2 (UniProt P53671)
# LMTK2 = LMTK2 (UniProt Q8IWU2)
# LYN = LYN (UniProt P07948)
# MAP2K1 = MAP2K1 (UniProt Q02750)
# MAP2K2 = MAP2K2 (UniProt P36507)
# MAP4K2 = MAP4K2 (UniProt Q12851)
SMILES,kinase-Nluc reporter destabilization hit call (ERN1; 2.5 µM),kinase-Nluc reporter destabilization hit call (FGFR1; 2.5 µM),kinase-Nluc reporter destabilization hit call (FGFR2; 2.5 µM),kinase-Nluc reporter destabilization hit call (FGFR3; 2.5 µM),kinase-Nluc reporter destabilization hit call (FGR; 2.5 µM),kinase-Nluc reporter destabilization hit call (FLT3; 2.5 µM),kinase-Nluc reporter destabilization hit call (FYN; 2.5 µM),kinase-Nluc reporter destabilization hit call (GSK3A; 2.5 µM),kinase-Nluc reporter destabilization hit call (HER2; 2.5 µM),kinase-Nluc reporter destabilization hit call (INSRR; 2.5 µM),kinase-Nluc reporter destabilization hit call (IRAK3; 2.5 µM),kinase-Nluc reporter destabilization hit call (JAK1; 2.5 µM),kinase-Nluc reporter destabilization hit call (LCK; 2.5 µM),kinase-Nluc reporter destabilization hit call (LIMK1; 2.5 µM),kinase-Nluc reporter destabilization hit call (LIMK2; 2.5 µM),kinase-Nluc reporter destabilization hit call (LMTK2; 2.5 µM),kinase-Nluc reporter destabilization hit call (LYN; 2.5 µM),kinase-Nluc reporter destabilization hit call (MAP2K1; 2.5 µM),kinase-Nluc reporter destabilization hit call (MAP2K2; 2.5 µM),kinase-Nluc reporter destabilization hit call (MAP4K2; 2.5 µM),kinase-Nluc reporter destabilization hit call (ERN1; 10 µM),kinase-Nluc reporter destabilization hit call (FGFR1; 10 µM),kinase-Nluc reporter destabilization hit call (FGFR2; 10 µM),kinase-Nluc reporter destabilization hit call (FGFR3; 10 µM),kinase-Nluc reporter destabilization hit call (FGR; 10 µM),kinase-Nluc reporter destabilization hit call (FLT3; 10 µM),kinase-Nluc reporter destabilization hit call (FYN; 10 µM),kinase-Nluc reporter destabilization hit call (GSK3A; 10 µM),kinase-Nluc reporter destabilization hit call (HER2; 10 µM),kinase-Nluc reporter destabilization hit call (INSRR; 10 µM),kinase-Nluc reporter destabilization hit call (IRAK3; 10 µM),kinase-Nluc reporter destabilization hit call (JAK1; 10 µM),kinase-Nluc reporter destabilization hit call (LCK; 10 µM),kinase-Nluc reporter destabilization hit call (LIMK1; 10 µM),kinase-Nluc reporter destabilization hit call (LIMK2; 10 µM),kinase-Nluc reporter destabilization hit call (LMTK2; 10 µM),kinase-Nluc reporter destabilization hit call (LYN; 10 µM),kinase-Nluc reporter destabilization hit call (MAP2K1; 10 µM),kinase-Nluc reporter destabilization hit call (MAP2K2; 10 µM),kinase-Nluc reporter destabilization hit call (MAP4K2; 10 µM)
Cc1cc(Nc2ncc(Cl)c(Nc3ccccc3S(=O)(=O)C(C)C)n2)c(OC(C)C)cc1C1CCNCC1 [Ceritinib],inactive: 0,inactive: 0,inactive: 0,inactive: 0,inactive: 0,inactive: 0,inactive: 0,inactive: 0,inactive: 0,inactive: 0,inactive: 0,inactive: 0,inactive: 0,inactive: 0,inactive: 0,inactive: 0,inactive: 0,inactive: 0,inactive: 0,inactive: 0,,,,,,,,,,,,,,,,,,,,
c1cc(-c2cnn3cc(-c4ccc(OCCN5CCCCC5)cc4)cnc23)ccn1 [Dorsomorphin (dihydrochloride)],inactive: 0,inactive: 0,inactive: 0,inactive: 0,inactive: 0,inactive: 0,inactive: 0,inactive: 0,inactive: 0,inactive: 0,inactive: 0,inactive: 0,inactive: 0,inactive: 0,inactive: 0,inactive: 0,inactive: 0,inactive: 0,inactive: 0,inactive: 0,,,,,,,,,,,,,,,,,,,,
C=CC(=O)Nc1cc(Nc2nccc(-c3cn(C4CC4)c4ccccc34)n2)c(OC)cc1N(C)CCN(C)C [Almonertinib],inactive: 0,inactive: 0,inactive: 0,inactive: 0,inactive: 0,inactive: 0,inactive: 0,inactive: 0,inactive: 0,inactive: 0,inactive: 0,inactive: 0,inactive: 0,inactive: 0,inactive: 0,inactive: 0,inactive: 0,inactive: 0,inactive: 0,inactive: 0,,,,,,,,,,,,,,,,,,,,
CC(C)NC[C@@H](C(=O)N1CCN(c2ncnc3c2[C@H](C)C[C@H]3O)CC1)c1ccc(Cl)cc1 [Ipatasertib (dihydrochloride)],,,,,,,,,,,,,,,,,,,,,inactive: 0,inactive: 0,inactive: 0,inactive: 0,inactive: 0,inactive: 0,inactive: 0,inactive: 0,inactive: 0,inactive: 0,inactive: 0,inactive: 0,inactive: 0,inactive: 0,inactive: 0,inactive: 0,inactive: 0,inactive: 0,inactive: 0,inactive: 0
CC(=O)Nc1cccc(-n2c(=O)n(C3CC3)c(=O)c3c(Nc4ccc(I)cc4F)n(C)c(=O)c(C)c32)c1 [Trametinib],,,,,,,,,,,,,,,,,,,,,inactive: 0,inactive: 0,inactive: 0,inactive: 0,inactive: 0,inactive: 0,inactive: 0,inactive: 0,inactive: 0,inactive: 0,inactive: 0,inactive: 0,inactive: 0,inactive: 0,inactive: 0,inactive: 0,inactive: 0,inactive: 0,inactive: 0,inactive: 0
OCCn1cc(-c2cnc3nnn(Cc4ccc5ncccc5c4)c3n2)cn1,,,,,,,,,,,,,,,,,,,,,inactive: 0,inactive: 0,inactive: 0,inactive: 0,inactive: 0,inactive: 0,inactive: 0,inactive: 0,inactive: 0,inactive: 0,inactive: 0,inactive: 0,inactive: 0,inactive: 0,inactive: 0,inactive: 0,inactive: 0,inactive: 0,inactive: 0,inactive: 0
CCN(CC)CC(=O)Nc1c(C)cccc1C [Lidocaine],,,,,,,,,,,,,,,,,,,,,inactive: 0,inactive: 0,inactive: 0,inactive: 0,inactive: 0,inactive: 0,inactive: 0,inactive: 0,inactive: 0,inactive: 0,inactive: 0,inactive: 0,inactive: 0,inactive: 0,inactive: 0,inactive: 0,inactive: 0,inactive: 0,inactive: 0,inactive: 0
Oc1cccc(-c2nc(N3CCOCC3)c3oc4ncccc4c3n2)c1 [PI-103 (Hydrochloride)],inactive: 0,inactive: 0,inactive: 0,inactive: 0,inactive: 0,inactive: 0,inactive: 0,inactive: 0,inactive: 0,inactive: 0,inactive: 0,inactive: 0,inactive: 0,inactive: 0,inactive: 0,inactive: 0,inactive: 0,inactive: 0,inactive: 0,inactive: 0,,,,,,,,,,,,,,,,,,,,
COc1ccc2c(c1)C(c1ccc(F)cc1)=C(CN1CCCC1)CO2 [AX-024 hydrochloride],,,,,,,,,,,,,,,,,,,,,inactive: 0,inactive: 0,inactive: 0,inactive: 0,inactive: 0,inactive: 0,inactive: 0,inactive: 0,inactive: 0,inactive: 0,inactive: 0,inactive: 0,inactive: 0,inactive: 0,inactive: 0,inactive: 0,inactive: 0,inactive: 0,inactive: 0,inactive: 0
O=C(Nc1ccncc1)Nc1ccc(-c2nc(N3CCOCC3)nc(N3C4CCC3COC4)n2)cc1,,,,,,,,,,,,,,,,,,,,,inactive: 0,active: 1,inactive: 0,inactive: 0,inactive: 0,inactive: 0,inactive: 0,inactive: 0,inactive: 0,inactive: 0,inactive: 0,inactive: 0,inactive: 0,inactive: 0,inactive: 0,inactive: 0,inactive: 0,inactive: 0,inactive: 0,inactive: 0
C[S+]([O-])c1ccc(-c2nc(-c3ccc(F)cc3)c(-c3ccncc3)[nH]2)cc1 (stereo not given),,,,,,,,,,,,,,,,,,,,,inactive: 0,inactive: 0,inactive: 0,inactive: 0,inactive: 0,inactive: 0,inactive: 0,inactive: 0,inactive: 0,inactive: 0,inactive: 0,inactive: 0,inactive: 0,inactive: 0,inactive: 0,inactive: 0,inactive: 0,inactive: 0,inactive: 0,inactive: 0
CNc1ncc2cc(-c3ccc(-c4cccc(C)n4)cc3Cl)c(=O)n(C[C@H]3OC[C@H](N)CO3)c2n1,,,,,,,,,,,,,,,,,,,,,inactive: 0,inactive: 0,inactive: 0,inactive: 0,inactive: 0,inactive: 0,inactive: 0,inactive: 0,inactive: 0,inactive: 0,inactive: 0,inactive: 0,inactive: 0,inactive: 0,inactive: 0,inactive: 0,inactive: 0,inactive: 0,inactive: 0,inactive: 0
Clc1ccc(C2(c3ccc(-c4cn[nH]c4)cc3)CCNCC2)cc1 [AT7867 (dihydrochloride)],inactive: 0,inactive: 0,inactive: 0,inactive: 0,inactive: 0,inactive: 0,inactive: 0,inactive: 0,inactive: 0,inactive: 0,inactive: 0,inactive: 0,inactive: 0,inactive: 0,inactive: 0,inactive: 0,inactive: 0,inactive: 0,inactive: 0,inactive: 0,,,,,,,,,,,,,,,,,,,,
COc1ncc(F)cc1CNc1ccc(Cc2c[nH]c3ncc(C)cc23)c(F)n1 [PLX5622 (hemifumarate)],,,,,,,,,,,,,,,,,,,,,inactive: 0,inactive: 0,inactive: 0,inactive: 0,inactive: 0,inactive: 0,inactive: 0,inactive: 0,inactive: 0,inactive: 0,inactive: 0,inactive: 0,inactive: 0,inactive: 0,inactive: 0,inactive: 0,inactive: 0,inactive: 0,inactive: 0,inactive: 0
CN1CCCN(C(=O)c2cccc(-c3ccc(/C=C4/C(=O)Nc5ccc(Cl)cc54)o3)c2)CC1 [CX-6258 (hydrochloride hydrate)],inactive: 0,inactive: 0,inactive: 0,inactive: 0,inactive: 0,inactive: 0,inactive: 0,inactive: 0,inactive: 0,inactive: 0,inactive: 0,inactive: 0,inactive: 0,inactive: 0,inactive: 0,inactive: 0,inactive: 0,inactive: 0,inactive: 0,inactive: 0,,,,,,,,,,,,,,,,,,,,
C[C@H](CCC(=O)NCCS(=O)(=O)O)[C@H]1CC[C@H]2[C@@H]3[C@@H](O)C[C@@H]4C[C@H](O)CC[C@]4(C)[C@H]3CC[C@]12C [Tauroursodeoxycholate (dihydrate)],,,,,,,,,,,,,,,,,,,,,inactive: 0,inactive: 0,inactive: 0,inactive: 0,inactive: 0,inactive: 0,inactive: 0,inactive: 0,inactive: 0,inactive: 0,inactive: 0,inactive: 0,inactive: 0,inactive: 0,inactive: 0,inactive: 0,inactive: 0,inactive: 0,inactive: 0,inactive: 0
Cc1cccc(-c2[nH]c(CNc3ccccc3F)nc2-c2ccc3ncnn3c2)n1 [Vactosertib],inactive: 0,inactive: 0,inactive: 0,inactive: 0,inactive: 0,inactive: 0,inactive: 0,inactive: 0,inactive: 0,inactive: 0,inactive: 0,inactive: 0,inactive: 0,inactive: 0,inactive: 0,inactive: 0,inactive: 0,inactive: 0,inactive: 0,inactive: 0,,,,,,,,,,,,,,,,,,,,
Cc1cccc(/C=N/Nc2cc(N3CCOCC3)nc(OCCc3ccccn3)n2)c1 [Apilimod],inactive: 0,inactive: 0,inactive: 0,inactive: 0,inactive: 0,inactive: 0,inactive: 0,inactive: 0,inactive: 0,inactive: 0,inactive: 0,inactive: 0,inactive: 0,inactive: 0,inactive: 0,inactive: 0,inactive: 0,inactive: 0,inactive: 0,inactive: 0,,,,,,,,,,,,,,,,,,,,
